# Test results: the supplement of paper PMC3334620
# The full ranking holds about 33,000 sequences; the median of “E-score (-0.5 to 0.5)” is about -0.015, and the highest 2% start at about 0.3. Some of the results follow.
# Biological target: T1, Abf1 (UniProt P14164)
# T1 sequence: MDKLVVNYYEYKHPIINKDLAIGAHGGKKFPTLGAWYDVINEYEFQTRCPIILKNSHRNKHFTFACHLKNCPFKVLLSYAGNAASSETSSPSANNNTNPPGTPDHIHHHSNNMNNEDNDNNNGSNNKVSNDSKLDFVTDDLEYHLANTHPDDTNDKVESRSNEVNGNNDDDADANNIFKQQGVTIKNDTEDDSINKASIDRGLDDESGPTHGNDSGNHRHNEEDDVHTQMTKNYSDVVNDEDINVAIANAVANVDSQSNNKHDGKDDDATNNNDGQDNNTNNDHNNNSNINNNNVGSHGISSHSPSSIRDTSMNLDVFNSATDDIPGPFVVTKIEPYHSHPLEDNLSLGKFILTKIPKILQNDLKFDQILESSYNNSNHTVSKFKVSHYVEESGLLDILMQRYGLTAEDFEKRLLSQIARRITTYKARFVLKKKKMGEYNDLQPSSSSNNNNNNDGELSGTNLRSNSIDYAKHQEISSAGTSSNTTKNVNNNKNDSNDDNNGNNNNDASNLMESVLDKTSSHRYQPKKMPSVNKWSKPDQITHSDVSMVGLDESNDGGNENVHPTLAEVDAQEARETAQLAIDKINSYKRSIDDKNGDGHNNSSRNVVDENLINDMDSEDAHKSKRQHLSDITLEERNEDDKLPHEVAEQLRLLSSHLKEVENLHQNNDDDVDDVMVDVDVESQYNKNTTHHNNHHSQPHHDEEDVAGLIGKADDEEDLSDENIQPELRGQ
# Assay: PBM E-score (8-mer binding enrichment) (E-score (-0.5 to 0.5)); higher = stronger / more preferred TF binding
# Conditions: protein concentration: 200 nM; construct: GST-full length
# Method in brief: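 Using PURExpress in vitro transcription/translation, GST-tagged yeast transcription factors were made in full-length or DNA-binding-domain form. These were applied at about 100-200 nM to double-stranded universal all-10-mer Agilent arrays, and bound protein was detected with fluorescent anti-GST. Scans were normalised with masliner before the Universal PBM Analysis Suite assigned E-scores to ungapped eight-base words pooled with their reverse complements.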
row,Sequence,PBM E-score
1,CTTGCCGA,0.0165
2,ATAACCTA,0.17
3,CCGCACCG,-0.105
4,ATTAGCTC,0.0751
5,ACCTCAGC,0.0792
6,ACATTGAA,0.0551
7,ATCTAGCC,-0.063
8,CAGACTCG,-0.287
9,ACACGCTC,0.0285
10,GGGGCGCA,-0.225
11,CACTCGCC,-0.00715
12,GGGCCTGA,-0.187
13,AGGGCATG,-0.167
14,AGCCTACA,-0.17
15,ACCGTGAA,0.278
16,CCGGTACA,0.144
17,CAACAGCC,-0.119
18,ATGTCATC,0.394
19,CACGAAGA,0.316
20,ACAGGTGC,-0.298
21,ACTGATGG,-0.21
22,ACGGGCGA,-0.00147

# Three records picked at random from those above:
row,Sequence,PBM E-score
7,ATCTAGCC,-0.063
6,ACATTGAA,0.0551
3,CCGCACCG,-0.105

# (further entries)

row,Sequence,PBM E-score
1,ACGTAGTA,0.206
2,AGTGCCAG,-0.152
3,AGTGTATG,-0.0706
4,AGGCGTCA,-0.0931
5,ACGCTTAG,0.0744
6,AATCGTCT,0.269
7,AGACTACA,-0.0384
8,CAGGTTCG,-0.058
9,ATTTATGC,-0.0479
10,GACAAAAC,0.196
11,TTAAGTAA,0.0118
12,CTAAGGAC,0.0621
13,CGGGGACC,-0.146
14,ATTCCGAG,0.166
15,AAGCATTC,-0.073
16,AATACGTC,0.138
17,CTTACGCA,0.0889
18,TCATACAA,-0.0621
19,CCAGCTCG,-0.205
20,ATATTCTG,0.157
21,CTATTGAA,-0.161
22,CGGAGGCC,-0.298

row,Sequence,PBM E-score
1,CACTGGCA,-0.156
2,ATTACATC,0.0796
3,ATTAGCGA,0.136
4,ACTTGTCC,0.0261
5,CTAAGGTA,0.0359
6,GGTAGCTA,-0.16
7,TAGTGACA,0.414
8,AGGTATAT,0.0387
9,ACAAGCCT,-0.0911
10,AGATAAGG,0.00618
11,AGGGGATC,-0.0732
12,ATTGTCAG,0.141
13,AGCGACCC,-0.0656
14,GTCTGCAA,-0.0352
15,AGCCGCAG,-0.26
16,ACTGTACC,-0.0561
17,GAGAGACA,-0.0355
18,CGTAATCC,0.206
19,AGAAGCAG,-0.157
20,CATAGTGG,-0.179
21,AGATCGTC,0.266
22,TATCGCGA,0.34

row,Sequence,PBM E-score
1,ACCAACTG,-0.0158
2,ACAAGGTG,0.0662
3,GACGAGGA,0.131
4,CTCTGGTA,-0.152
5,AGCCGTGG,-0.0408
6,GACATTAC,0.16
7,AGGCCGAA,0.074
8,ATGATGAA,0.306
9,GGCGATAA,0.0146
10,CACATCCC,-0.0296
11,CCATTTAC,0.013
12,ATTTAGCC,0.0158
13,ACCCAGCG,-0.136
14,AAGGGATT,0.0664
15,ACTGAGGA,-0.181
16,AAAGAGGT,-0.0718
17,ACCACTAT,0.102
18,GATACAAC,0.171
19,ATTTACGG,0.0718
20,GACTCAAC,0.0509
